# Experimental data taken from the supplement of paper PMC10338343.
# ± gives the standard deviation. This is a selection; strong and weak results do not stand in their true shares. Many of these values have a large error. The list shows a part of the results.
# Key:
# [1] = system: MIWI (PIWIL1) piRISC loaded with L1MC piRNA (30 nt); assay: pre-steady-state target cleavage rate (min^-1); higher = faster piRNA-guided slicing of the target; details: guide: L1MC piRNA 5'p-UAACUAAAUACUAUGCAAGCUGUAGGUCCU;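 further: 1 nM active piRISC with 0.1 nM target library at 33 °C single turnover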
# In short: (§1)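 Active affinity-purified piRISC carrying one synthetic guide (1 nM) was mixed with a transcribed, DNA-blocked target RNA library […] in HEPES–potassium acetate buffer at 33 °C for 0–8 or 0–960 min, with or without 500 nM GTSF1 partner protein. Uncleaved targets were then sequenced and normalised to depth and to weakly complementary targets. Three trials were pooled, and k3 was capped at 0.0001 min^-1. A burst-and-steady-state fit was applied to obtain the pre-steady-state cleavage rate.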
# [2] = system: EfPiwi piRISC loaded with L1MC piRNA (26 nt); assay: pre-steady-state target cleavage rate (min^-1); guide: L1MC piRNA 5'p-UAACUAAAUACUAUGCAAGCUGUAGG; MIWI and MILI are mouse PIWI proteins and EfPiwi is from a freshwater sponge; tags in brackets are library labels; higher = faster piRNA-guided slicing of the target
# In short: as §1
# [3] = auxiliary factor: none (no GTSF1)
# [4] = auxiliary factor: 500 nM Ephydatia muelleri Gtsf1
# [5] = auxiliary factor: none (no Gtsf1)
Sequence,"pre-steady-state target cleavage rate [1, 3]","pre-steady-state target cleavage rate [2, 4]","pre-steady-state target cleavage rate [2, 5]",pre-steady-state target cleavage rate ([1]; auxiliary factor: 500 nM mouse GTSF1)
UCCUGGAACAGCUUCCAAAGUAUUUAGUUA,0.00175 ± 0.0032,0.00262 ± 0.0019,0.000486 ± 0.012,
UCCUGGAUCAGCUUGCAAUCUAUUUACAAA,0.000764 ± 0.011,0.000894 ± 0.0064,0.000127 ± 0.052,
UCCUGGUACAGCUUGCAUAGUAUAAACAAA,0.00126 ± 0.0061,0.000856 ± 0.0054,0.000277 ± 0.026,
UCCUGGAUGUCGUGGCAUAGUAUUUAGUUA,0.00269 ± 0.0036,0.00281 ± 0.0046,0.000309 ± 0.032,
UCCUGGAUGUGCUUGCAUAGUAUUUUCAAA,0.00192 ± 0.0038,0.00086 ± 0.0043,0.000322 ± 0.023,
UCCUCCUACAGCUUGCAUAGUAUUUGUUA,0.00166 ± 0.0043,0.00561 ± 0.0026,0.00103 ± 0.0068,
UCCUGGAUGUCGAAGCAUAGUUUUUAGAUA,0.000562 ± 0.0089,0.000285 ± 0.01,< 0.0001,
UCCUGGAUGUCGUUGCAUAGUACUUAGUUA,0.00272 ± 0.0033,0.00365 ± 0.0035,0.00147 ± 0.0065,
UCCUGGAUGAGCUUGCUAAGUAUUUACAAA,0.00138 ± 0.0061,0.000399 ± 0.011,0.00104 ± 0.01,
UCCUGGAUGUCGAUGCAUAGUAUUGAGUUA,0.00155 ± 0.0045,0.00169 ± 0.0049,0.00057 ± 0.013,
UCCUGGAUGUCCUUGCAAAGUAUUUAGAUA,0.00153 ± 0.0031,0.000272 ± 0.021,0.000525 ± 0.012,
UCCUGGAUGUCCAUGCAUAGUAUUUAGUUA,0.00244 ± 0.0028,0.00171 ± 0.0034,0.00073 ± 0.011,
UCCUGGAUGUCGAAGCAUAGUAAUAAGUUA,0.00014 ± 0.045,0.000269 ± 0.0088,0.00032 ± 0.022,
UCCUGGAUGUCGAAGCAUACUUUUUAGUUA,0.000454 ± 0.012,0.000209 ± 0.013,0.000172 ± 0.03,
UCCUGGUACAGCUUGGUUAGUAUUUACAAA,0.00107 ± 0.0063,0.000574 ± 0.0095,0.000741 ± 0.015,
UCCUGGAUGUCGAUGCAUAGUACUUUAGUUA,0.000645 ± 0.011,0.000387 ± 0.014,0.000394 ± 0.017,
UCCUGGAUGUCGAUGCAUAGUAUUUAGUUU [g2:g17:cont:t1U],0.00173 ± 0.0034,0.00213 ± 0.0035,0.000132 ± 0.028,
UCCUGGAUGUCCUUGCAUAGUAUUGAGUUA,0.00653 ± 0.0024,0.00192 ± 0.0028,0.000653 ± 0.0094,0.142 ± 0.031

# Quoted at random: two records from the list, in no set order.
Sequence,"pre-steady-state target cleavage rate [1, 3]","pre-steady-state target cleavage rate [2, 4]","pre-steady-state target cleavage rate [2, 5]",pre-steady-state target cleavage rate ([1]; auxiliary factor: 500 nM mouse GTSF1)
UCCUGGAUGUCCAUGCAUAGUAUUUAGUUA,0.00244 ± 0.0028,0.00171 ± 0.0034,0.00073 ± 0.011,
UCCUGGAUGAGCUUGCUAAGUAUUUACAAA,0.00138 ± 0.0061,0.000399 ± 0.011,0.00104 ± 0.01,
